Assay results from patent US8476029B2, “MCPP immunoassay” (priority 2009, dated 2013).
Converted amounts (≈) assume the structure as drawn.

Key:
[1] = test system: Generic antibody (antibody raised from the mCPP-derived immunogen); assay type: binding, sheep
Method: (§1) Trazodone and mCPP were coupled by way of a crosslinker to bovine thyroglobulin (Examples 7 and 12). The resulting immunogens were administered separately to adult sheep on a monthly basis to provide target-specific polyclonal antisera. IgG was extracted from the antisera via caprylic acid/ammonium sulphate precipitation of immunoglobulin. Microtitre plates (Thermo Scientific, 95029180) were coated with antibody (125 μl) in coating buffer (10 mM Tris pH 8.5) at 37° C. for 2 hours. Antibody raised from the mCPP-derived immunogen was coated at 2.5 μg/ml and antibody raised from the trazodone-derived immunogen was coated at 0.625 μg/ml. The plates were then washed. 50 μl of sample/standard (trazodone, Sigma T6154-1 g; mCPP, Alfa-Aesar L01772; nefazodone, Sigma N5536) was added to the appropriate wells in triplicate, followed by 75 μl of conjugate from Example 13 for the generic antibody, and 75 μl of conjugate from Example 8 for the trazodone-specific antibody) and incubated at 25° C. for 1 hour. The plates were then washed and 125 μl of TMB (Randox, 4380-15) was added to each well and left at room temperature for 20 minutes in the dark. The reaction was stopped using 125 μl of 0.2M sulphuric acid. The absorbances were then read at 450 nm with an ELISA microplate reader (BIO-TEK Instruments, EL340) and the means calculated. Antibody specificity and sensitivity were then determined. […]

[2] = test system: Trazodone antibody (antibody raised from the trazodone-derived immunogen); assay type: binding, sheep
Method: as §1

SMILES: O=c1n(CCCN2CCN(c3cccc(Cl)c3)CC2)nc2ccccn12 [Trazodone, 2-(3-[4-(3-chlorophenyl)piperazin-1-yl]propyl)-[1,2,4]triazolo[4,3-α]pyridin-3(2H)-one]
- IC50 (standard concentration which produces 50% B/B0) [1]: 0.532 ng/mL (≈ 1.43 nM)
- IC50 (standard concentration which produces 50% B/B0) [2]: 0.872 ng/mL (≈ 2.34 nM)
